In paper PMC7819943, “Rice protein-binding microarrays: a tool to detect cis-acting elements near promoter regions in rice” one finds binding signal data, which are given here for 42 sequences.

Protein sequences, listed by entry. Tags and fused reporters are not part of them.
UniProt Q0JBA9, entry or part of it: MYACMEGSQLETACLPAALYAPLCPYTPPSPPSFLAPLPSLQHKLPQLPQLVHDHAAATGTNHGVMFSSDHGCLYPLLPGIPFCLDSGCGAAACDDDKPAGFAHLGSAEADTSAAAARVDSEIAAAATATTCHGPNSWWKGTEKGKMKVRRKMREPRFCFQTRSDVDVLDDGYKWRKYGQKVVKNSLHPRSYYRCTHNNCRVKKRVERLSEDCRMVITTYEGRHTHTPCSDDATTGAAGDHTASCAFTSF

This is one part of the list.

The target in the assay is OsWRKY34 (Oryza sativa, UniProt Q0JBA9 1-250). In words: protein-binding microarray (RPBM); PBS, 2% BSA, 51.3 ng/ul salmon testes DNA, 50 uM zinc acetate, 200 nM TF, 25 C, 1 h; high values mean tight binding. The following applies: protein: recombinant; tags: N-terminal polyhistidine and DsRed monomer fusion (pET32a); label: CyDye5-dUTP incorporated in the synthesized complementary strand; 3' TTTTT single-stranded linker to array surface; dsDNA, one strand shown. Put shortly:
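For the binding signal, per-feature fluorescence intensity was read in arbitrary units on an Axon 4000B scanner. Before scanning, a 2% BSA-blocked custom Agilent array made double-stranded with Cy5-dUTP was washed after 1 h at 25 °C with 200 nM protein and 50 µM zinc acetate. The proteins were Ni–NTA-purified transcription factors with N-terminal polyhistidine and DsRed fusions, expressed in E. coli BL21-CodonPlus.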
“GTCATTTGACTTTTTTTGTCAAATACTTAAAATTTCTTAACGGAGTCACCTAGTGCAG”: the binding signal was 9040 fluorescence intensity (a.u.).
Consider “GCCTTTGCTCCGCTCCACAGCTGGTCGCCACCGTCGACCTCGGAGTCACCTAGTGCAG”, for which the binding signal is 10500 fluorescence intensity (a.u.).
As for “ATAATTATTTCAACAATGTGTTAATTTTTTTGGTAAATTTCGGAGTCACCTAGTGCAG”, the figure is 8340 fluorescence intensity (a.u.); as for “TCTTTTTGTGTATCTTAGCTTATCTTATCTTCTCGAATTCCGGAGTCACCTAGTGCAG”, 10700 fluorescence intensity (a.u.); as for “ATGTCTTTTTCTGAACCTCCTTGCCCTACACCACTTCCAACGGAGTCACCTAGTGCAG”, 8410 fluorescence intensity (a.u.).
Regarding “AACTGCACTTATTTTGTGACGGAGGTAGTAGACTTTTTTTCGGAGTCACCTAGTGCAG”, the binding signal was 9060 fluorescence intensity (a.u.).
On to “TGACAATCTCCGTTTCGTCTTCTTCTTCTTCTTCTCCGCCCGGAGTCACCTAGTGCAG”, for which the binding signal is 8410 fluorescence intensity (a.u.).
The figure for “TTTGGTTCACGCGGCGCGGGCGGGGAGTGGGAGGGGCATGCGGAGTCACCTAGTGCAG” is 24100 fluorescence intensity (a.u.).
As for “CATCTCGCCGTCCACCGCCCACCACTCCGACTTCTTCGCGCGGAGTCACCTAGTGCAG”, the figure is 9600 fluorescence intensity (a.u.); as for “TCAGCTTGTTTCATTCGCATCTATAGCTTCTTTTTTTCCGCGGAGTCACCTAGTGCAG”, 9170 fluorescence intensity (a.u.).
The figure for “TCCATTCGTAATTCATACAGTACTTTACATCGTTGCTTCACGGAGTCACCTAGTGCAG” is 8780 fluorescence intensity (a.u.); for “TTGGTTTTCATGATATTTTGATCCTGCATTTTTTCCTATTCGGAGTCACCTAGTGCAG” it is 10800 fluorescence intensity (a.u.); for “TAGGTACATTCCCATCTATTTGGAAATTTTCTTATTCCAACGGAGTCACCTAGTGCAG” it is 8060 fluorescence intensity (a.u.).
In the case of “ACTACGCATCACCTATATTCCATCCAGCCCTACATAAACCCGGAGTCACCTAGTGCAG”, the binding signal is 8500 fluorescence intensity (a.u.).
As for “CAGCAGAGAAATTCCACCGTTTTCCTGTCCTCGCTCGCCACGGAGTCACCTAGTGCAG”, the binding signal is 8610 fluorescence intensity (a.u.).
Consider “AATGAACCTTTTCTAATCCTGTTCGGCCCGTTTCAGCCGGCGGAGTCACCTAGTGCAG”, for which the binding signal is 8300 fluorescence intensity (a.u.).
For the sequence “ATCAGAAACCTCAGTCGTCTCACTTCTTCACATCACGCCACGGAGTCACCTAGTGCAG”, the binding signal was 8790 fluorescence intensity (a.u.).
As for “TTAACTTTTTATGGTATTAATGATGTATTGGGGTTTTTTTCGGAGTCACCTAGTGCAG”, the figure is 11700 fluorescence intensity (a.u.); as for “GGGCTGGCAACGATGGCATTTCGGGCATCACTTCCCATCTCGGAGTCACCTAGTGCAG”, 10100 fluorescence intensity (a.u.); as for “TGTTTCACAAGTAGTCTTCTTTTTTTTCTGGCACATTTAACGGAGTCACCTAGTGCAG”, 8080 fluorescence intensity (a.u.).
As for “CCAGTGAACATATACTCACAGTCAAATTTGTTTTTTGACTCGGAGTCACCTAGTGCAG”, the figure is 8350 fluorescence intensity (a.u.).
In the case of “CGGGGCCAACGAACTTTTCCTCTCCTTCCCGCATCCTCTCCGGAGTCACCTAGTGCAG”, the binding signal is 8510 fluorescence intensity (a.u.).
As to “CATTGCCAGGAGTCCCACACTCCCACTTCCCAAGTGCTGCCGGAGTCACCTAGTGCAG”, the binding signal was 8450 fluorescence intensity (a.u.).
In the case of “CGCCGAACCCTTCTCGCGTCATCGTCCCCTTCCGCCGCCGCGGAGTCACCTAGTGCAG”, the binding signal is 9520 fluorescence intensity (a.u.).
As for “GGGCTGGGTCGCGTACCCGAATCGTGCTCCATTGGATCTCCGGAGTCACCTAGTGCAG”, the figure is 9390 fluorescence intensity (a.u.); as for “CCACCTATTTAACTCGCGCCTCCATCGCTTTCCAGTTTCCCGGAGTCACCTAGTGCAG”, 10100 fluorescence intensity (a.u.).
On to “CTAGAATCTCCTCGCGTTGTTCTTCCCTTGCTTAATTAATCGGAGTCACCTAGTGCAG”, for which the binding signal was 8650 fluorescence intensity (a.u.).
For the sequence “TTCGTTTTTTCCGCCCTCGTGTTCGGCGCAAATCTTCTTCCGGAGTCACCTAGTGCAG”, the binding signal was 8530 fluorescence intensity (a.u.).
As for “AACCTTAGATTTCCGTGTCTAACTTTGACTGTCTGTCTTACGGAGTCACCTAGTGCAG”, the binding signal is 10600 fluorescence intensity (a.u.).
The figure for “AATTGTTTCTGGGAAGTAGCTGGTTGTTAGTCACGTTAATCGGAGTCACCTAGTGCAG” is 11600 fluorescence intensity (a.u.); for “CCTGCCCAACCCGCCGCATCCTAATTCCTAAACCCTAACACGGAGTCACCTAGTGCAG” it is 8430 fluorescence intensity (a.u.).
On to “CCTTTGTTCTTGCCGTCTCTTTTTTTTTTTTACAGAAGAACGGAGTCACCTAGTGCAG”, for which the binding signal is 14600 fluorescence intensity (a.u.).
As for “CGATGGTGTGGTTTGGTTGCAGGTACAAGGTTGAAGACGACGGAGTCACCTAGTGCAG”, the figure is 10700 fluorescence intensity (a.u.); as for “AAGGGGCATAGAGAGCTCATAATGGGGTTGGTCGTATCTACGGAGTCACCTAGTGCAG”, 9500 fluorescence intensity (a.u.).
As for “TCGGCTTGTCAGCCGATCGGCTGTTTTATCTGCTGTTTACCGGAGTCACCTAGTGCAG”, the binding signal was 8390 fluorescence intensity (a.u.).
As for “ATCCGTACTCCCGTATATGTGGCAACATCTCCATCGTTTTCGGAGTCACCTAGTGCAG”, the figure is 16000 fluorescence intensity (a.u.); as for “AAAATCCCTGTCCCCTGTTTTTTTACTGCAATCTCGCGTACGGAGTCACCTAGTGCAG”, 11100 fluorescence intensity (a.u.); as for “GTTTTTTTTACTGTGTTTCTTAATCTAAAGCGACTATTATCGGAGTCACCTAGTGCAG”, 8270 fluorescence intensity (a.u.).
Take “TCCCGTCTCCGCATCCACCTCCTCGGCCTCCGACTACTTACGGAGTCACCTAGTGCAG”: the binding signal was 9220 fluorescence intensity (a.u.).
As for “CTCTGCTCAGTGCTGCTCACTGCCTCACTCACACTGTCACCGGAGTCACCTAGTGCAG”, the figure is 11000 fluorescence intensity (a.u.); as for “GCTGACCACGTTTCTCCTCTCTTTTTTACAGCGTCGCGCACGGAGTCACCTAGTGCAG”, 12200 fluorescence intensity (a.u.); as for “ACCGCCGGACCTCCTCTCCCGCCTCGTCCCGGCGACCTTCCGGAGTCACCTAGTGCAG”, 8890 fluorescence intensity (a.u.).
